Measurements taken from the supplement of paper PMC8728848.
The list shows a part of the results.

Experiments:
Test in all cases: glycan array binding signal (z-score within array); higher = stronger binding
Settings in all cases: glycan notation: IUPAC condensed, linker removed
[1] = biological target: Gal3S6S(b1-4)GlcNAc
Method in brief: (§1)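 The binding signal is a Z-score computed within each array. Data were drawn from 3228 arrays in the Consortium for Functional Glycomics database, restricted to those with a known protein sequence. Scores were averaged over arrays of the same protein sequence at different concentrations or buffers, and over linkers, and negative values can be taken as non-binding.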

[2] = biological target: Gal3S6S(b1-4)GlcNAc6S
Method in brief: as §1

[3] = biological target: Gal4S(b1-4)GlcNAc
Method in brief: as §1

[4] = biological target: Gal4S6S(b1-4)GlcNAc
Method in brief: as §1

[5] = biological target: Gal6P(b1-4)GlcNAc
Method in brief: as §1

[6] = biological target: Gal6S(b1-3)GlcNAc
Method in brief: as §1

[7] = biological target: Gal6S(b1-3)GlcNAc6S
Method in brief: as §1

[8] = biological target: Gal6S(b1-4)Glc
Method in brief: as §1

[9] = biological target: Gal6S(b1-4)Glc6S
Method in brief: as §1

[10] = biological target: Gal6S(b1-4)GlcNAc
Method in brief: as §1

[11] = biological target: Gal6S(b1-4)GlcNAc6S
Method in brief: as §1

[12] = biological target: GalNAc(a1-3)Gal
Method in brief: as §1

[13] = biological target: GalNAc(a1-3)GalNAc
Method in brief: as §1

[14] = biological target: GalNAc(a1-3)GalNAc(b1-3)Gal(a1-4)Gal(b1-4)Glc
Method in brief: as §1

[15] = biological target: GalNAc(a1-3)GalNAc(b1-3)Gal(a1-4)Gal(b1-4)GlcNAc
Method in brief: as §1

[16] = biological target: GalNAc(b1-3)Gal
Method in brief: as §1

[17] = biological target: GalNAc(b1-3)Gal(a1-4)Gal(b1-4)GlcNAc
Method in brief: as §1

[18] = biological target: GalNAc(b1-3)Gal(a1-4)Gal(b1-4)GlcNAc(b1-3)Gal(b1-4)Glc
Method in brief: as §1

[19] = biological target: GalNAc(b1-3)Gal(a1-6)Gal(b1-4)Glc
Method in brief: as §1

[20] = biological target: GalNAc(b1-3)GalNAc
Method in brief: as §1

[21] = biological target: GalNAc(b1-3)GlcNAc
Method in brief: as §1

[22] = biological target: GalNAc(b1-4)Gal(b1-4)Glc
Method in brief: as §1

[23] = biological target: GalNAc(b1-4)GlcNAc
Method in brief: as §1

[24] = biological target: GalNAc(b1-4)GlcNAc(b1-2)Man
Method in brief: as §1

[25] = biological target: GalNAc(b1-4)GlcNAc(b1-2)Man(a1-3)[GalNAc(b1-4)GlcNAc(b1-2)Man(a1-6)]Man(b1-4)GlcNAc(b1-4)GlcNAc
Method in brief: as §1

[26] = biological target: GalNAc(b1-4)GlcNAc(b1-3)GalNAc(b1-4)GlcNAc
Method in brief: as §1

[27] = biological target: GalNAc(b1-4)GlcNAc6S
Method in brief: as §1

[28] = biological target: GalNAc(b1-6)GalNAc
Method in brief: as §1

[29] = biological target: GalNAc3S(b1-4)GlcNAc
Method in brief: as §1

[30] = biological target: GalNAc3S(b1-4)GlcNAc3S
Method in brief: as §1

[31] = biological target: GalNAc3S(b1-4)[Fuc(a1-3)]GlcNAc
Method in brief: as §1

[32] = biological target: GalNAc4S6S(b1-4)GlcNAc
Method in brief: as §1

[33] = biological target: GalNAc6S(b1-4)GlcNAc
Method in brief: as §1

[34] = biological target: Glc(a1-4)Glc
Method in brief: as §1

[35] = biological target: Glc(a1-4)Glc(a1-4)Glc(a1-4)Glc
Method in brief: as §1

[36] = biological target: Glc(a1-6)Glc(a1-6)Glc
Method in brief: as §1

[37] = biological target: Glc(a1-6)Glc(a1-6)Glc(a1-6)Glc
Method in brief: as §1

[38] = biological target: Glc(b1-4)Glc
Method in brief: as §1

B1: EUL D1A (Oryza sativa) (protein)
chain: MFGFGHHHNQAPAAPSDPNQIFKIFCRANENYCLTVRDSAVVLAPVNPKDEHQHWFKDMRFSTKVKDGEGMPAFALVNKATGLAVKHSLGQSHPVKLVPFNPEYEDASVLWTESKDVGKGFRCIRMVNNTRLNLDAFHGDKDHGGVRDGTTVVLWEWCKGDNQSWKILPWGPEAHSSSPGAATACTIGGVPVHTVRVFSAAGEDYCLTVRNGTACLAPKNPRDDYQHWIKDMRHSNKIRDEEGYPAFALVNKVTGEAIKHSTGQGHPVKLVPYNPEYQDESVLWTESKDVGKGFRCIRMVNNIYLNFDAFHGDKDHGGIHDGTEIVLWKWCEGDNQRWKILPWILEQKLISEEDLNSAVDHHHHHH
[1]
  glycan array binding signal (z-score): 0.639
[2]
  glycan array binding signal (z-score): 0.718
[3]
  glycan array binding signal (z-score): 0.561
[4]
  glycan array binding signal (z-score): -0.086
[5]
  glycan array binding signal (z-score): -0.831
[6]
  glycan array binding signal (z-score): -0.532
[7]
  glycan array binding signal (z-score): -0.305
[8]
  glycan array binding signal (z-score): 0.689
[9]
  glycan array binding signal (z-score): 1.42
[10]
  glycan array binding signal (z-score): -0.407
[11]
  glycan array binding signal (z-score): -0.063
[12]
  glycan array binding signal (z-score): -0.556
[13]
  glycan array binding signal (z-score): 0.134
[14]
  glycan array binding signal (z-score): -0.009
[15]
  glycan array binding signal (z-score): -0.153
[16]
  glycan array binding signal (z-score): -0.537
[17]
  glycan array binding signal (z-score): 1.76
[18]
  glycan array binding signal (z-score): -0.333
[19]
  glycan array binding signal (z-score): 0.714
[20]
  glycan array binding signal (z-score): -0.061
[21]
  glycan array binding signal (z-score): 0.832
[22]
  glycan array binding signal (z-score): -1
[23]
  glycan array binding signal (z-score): -0.309
[24]
  glycan array binding signal (z-score): -1.85
[25]
  glycan array binding signal (z-score): 0.462
[26]
  glycan array binding signal (z-score): -1.12
[27]
  glycan array binding signal (z-score): -0.373
[28]
  glycan array binding signal (z-score): -0.629
[29]
  glycan array binding signal (z-score): -0.956
[30]
  glycan array binding signal (z-score): 0.381
[31]
  glycan array binding signal (z-score): 1.47
[32]
  glycan array binding signal (z-score): 0.331
[33]
  glycan array binding signal (z-score): -1.44
[34]
  glycan array binding signal (z-score): 0.067
[35]
  glycan array binding signal (z-score): -0.154
[36]
  glycan array binding signal (z-score): -0.086
[37]
  glycan array binding signal (z-score): -0.093
[38]
  glycan array binding signal (z-score): -1.29
